Where “and” joins values, the source holds several entries; their conditions need not be identical. Equal entries are not always repeated. Part of at least one peptide drawing is inferred or uncertain, most often the ends. Residues, ends and D or L forms follow the SMILES beside them.
Key:
Aβ1-42 = target: T1, Aβ1-42 (Homo sapiens, UniProt P05067); assay: Thioflavin T (ThT) fluorimetric assay, time-course of Aβ1-42 aggregation / binding to Aβ oligomers; type: biochemical; details: FIG. 1
T1 construct: Time-course of Aβ1-42 aggregation

Chains of the proteins cited; added tags and fusions are not shown. Residues count along the entry.
UniProt P05067, 672-713 limits assumed: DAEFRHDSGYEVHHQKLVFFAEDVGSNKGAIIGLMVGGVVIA
UniProt P05067, 672-711 limits assumed: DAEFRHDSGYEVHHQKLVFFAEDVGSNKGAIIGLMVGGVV
UniProt P56817, 46-501: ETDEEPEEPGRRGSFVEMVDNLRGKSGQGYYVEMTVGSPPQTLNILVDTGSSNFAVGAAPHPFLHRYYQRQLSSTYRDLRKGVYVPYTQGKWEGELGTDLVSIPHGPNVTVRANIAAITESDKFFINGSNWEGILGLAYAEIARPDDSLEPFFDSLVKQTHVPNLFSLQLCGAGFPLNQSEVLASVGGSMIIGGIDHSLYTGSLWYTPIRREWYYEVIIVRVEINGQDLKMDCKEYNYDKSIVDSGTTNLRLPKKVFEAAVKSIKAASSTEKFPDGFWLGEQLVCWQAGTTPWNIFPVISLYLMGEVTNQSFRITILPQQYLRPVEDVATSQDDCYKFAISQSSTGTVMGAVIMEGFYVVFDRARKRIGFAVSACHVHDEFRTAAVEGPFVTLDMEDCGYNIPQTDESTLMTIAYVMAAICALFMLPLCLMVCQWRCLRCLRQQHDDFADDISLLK
UniProt P10636, 1-441 isoform P10636-8 P301L: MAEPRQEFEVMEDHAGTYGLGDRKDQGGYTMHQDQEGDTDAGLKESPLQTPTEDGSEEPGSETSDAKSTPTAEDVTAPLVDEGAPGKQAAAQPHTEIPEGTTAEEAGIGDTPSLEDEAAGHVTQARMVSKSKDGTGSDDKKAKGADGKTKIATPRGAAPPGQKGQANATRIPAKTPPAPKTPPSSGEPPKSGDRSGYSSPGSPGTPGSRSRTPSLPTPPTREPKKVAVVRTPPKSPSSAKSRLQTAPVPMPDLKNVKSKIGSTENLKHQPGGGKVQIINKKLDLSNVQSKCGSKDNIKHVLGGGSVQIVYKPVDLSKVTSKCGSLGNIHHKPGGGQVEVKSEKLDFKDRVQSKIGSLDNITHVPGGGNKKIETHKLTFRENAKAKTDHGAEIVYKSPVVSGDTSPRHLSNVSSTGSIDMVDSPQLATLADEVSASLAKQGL

[1] = target: human recombinant β-secretase (Homo sapiens, UniProt P56817); assay: Human β-secretase (BACE1) inhibition; type: biochemical; details: dose-dependent, FIG. 2
APPSwe/PS1DE9 = type: in vivo, mouse; details: APPSwe/PS1DE9 mice, intranasal
Description: FIG. 4. Mouse brain distribution of Aβ1-6A2V (D) peptide 2 hours after the last intranasal administration: A) Control and B) Treated Mice. FIG. 5. Effect of Aβ1-6A2V(D) on Aβ oligomer formation in the brain: biochemical assessment. APPSwe/PS1DE9 were treated with Aβ1-6A2V(D) at 50 mg/kg for five months. Control group was treated intranasally with PBS. A: Levels of Aβ aggregates in soluble and insoluble brain fractions after 2.5 months of treatment. B: Levels of Aβ aggregates in soluble and insoluble brain fractions after five months of treatment. * p<0.01; *** p<0.001. FIG. 6. Effect of Aβ1-6A2V(D) on Aβ deposits in mouse brain: neuropathological assessment. A: APPSwe/PS1DE9 were treated with Aβ1-6A2V(D) daily for five months at 50 mg/kg. Control group (CTRL) was treated intranasally with PBS. Amyloid burden measured by plaque count. ** p<0.01; *** p<0,001. B: Immunohistochemistry with the 4G8 anti-Aβ antibody. FIG. 7. Effect of Aβ1-6A2V(D) on synaptopathy. Subcellular fractionation of hippocampal homogenates from mice treated with Aβ1-6A2V(D) (right columns) or PBS (left columns). Western blot analysis with antibodies against synaptic receptors (NMDA-2A, GluN2B, GluA1 and GluA2) and scaffold protein (PSD95). The treatment with Aβ1-6A2V(D) preserved synaptic integrity. […]

[2] = target: binding of Aβ1-42 oligomers to tau (2N4R-Tau) monomers (Homo sapiens, UniProt P05067); assay: Surface Plasmon Resonance (SPR) inhibition of Aβ1-42 oligomers binding to immobilized tau; details: two independent experiments, oligomers equilibrated with peptide one hour at room temperature in PBST
wt full-length tau [3] = target: T2, wt full-length tau (Homo sapiens, UniProt P10636); assay: ThT test of tau polymerization, wt full-length tau; type: biochemical; details: aggregation triggered by heparin, 5 mM DTT (FIG. 10)
T2 construct: when incubated with wt full-length tau or P301L tau

P301L tau = target: T3, P301L tau (Homo sapiens, UniProt P10636, P618L); assay: ThT test of tau polymerization, P301L tau; type: biochemical; details: aggregation triggered by heparin, 5 mM DTT (FIG. 10)
T3 construct: Time course of full-length tau P301L aggregation

wt full-length tau [4] = target: T2, wt full-length tau; assay: Atomic force microscopy (AFM) time course of WT full-length tau aggregation; type: biochemical; details: WT full-length tau co-incubated with peptide (FIG. 11)
full-length tau P301L = target: T4, full-length tau P301L (Homo sapiens, UniProt P10636, P618L); assay: Atomic force microscopy (AFM) time course of full-length tau P301L aggregation; type: biochemical; details: full-length tau P301L in the presence of peptide (FIG. 12)
T4 construct: Time course of full-length tau P301L aggregation

Aβ1-40WT = Aβ1-40WT (Homo sapiens, UniProt P05067); assay: DEPMO-OH-spin trap assay for ROS formation during Cu(II)- or Fe(III)-Aβ-catalyzed processes; type: biochemical; details: buffer containing traces of Cu (II) and Fe (III); co-incubation (FIG. 13)

With `CC(C)[C@@H](NC(=O)[C@H](N)CC(=O)O)C(=O)N[C@H](CCC(=O)O)C(=O)N[C@H](Cc1ccccc1)C(=O)N[C@H](CCCNC(=N)N)C(=O)N[C@H](Cc1c[nH]cn1)C(=O)O` [Aβ1-6A2V(D)] (HELM PEPTIDE1{[dD].[dV].[dE].[dF].[dR].[dH]}$$$$V2.0; N-terminus and C-terminus assumed) the “Binding to Aβ oligomers” value (Aβ1-42) was “selectively binds to oligomers”, the Aβ1-42 aggregation (Aβ1-42; time-course) was “hinders Aβ1-42 aggregation” and the IC50 [1] was 5.2 ± 0.2 µM. For the same compound, the “Oligomer generation and amyloid accumulation in brain” value (APPSwe/PS1DE9; 50 mg/kg for 5 months, Aβ aggregates in soluble and insoluble brain fractions, plaque count (FIGS. 5 and 6)) was “inhibition of oligomer generation and amyloid accumulation”, the “Synaptic dysfunction (synaptopathy)” value (APPSwe/PS1DE9; 50 mg/kg, long-term (5 months), Western blot of hippocampal synaptic receptors and PSD95 (FIG. 7)) was “prevention of synaptic dysfunction” and the IC50 [2] was 360 µM and 388 µM. For the same compound, the “Capacity of tau to polymerize (ThT test)” value (wt full-length tau [3]) was “significantly reduces the capacity of these proteins to polymerize”, the “Capacity of tau to polymerize (ThT test)” value (P301L tau) was “significantly reduces the capacity of these proteins to polymerize” and the “Number of tau fibres (AFM)” value (wt full-length tau [4]) was “the number of fibres is significantly reduced”. For the same compound, the “Number of tau fibres (AFM)” value (full-length tau P301L) was “the number of fibres is significantly reduced” and the “Spontaneous formation of OH radicals by Aβ1-40WT” value (Aβ1-40WT) was “inhibits the spontaneous formation of OH radicals”.
